Assay results reported in PMC13304329.

Protein sequences, listed by entry. Tags and fused reporters are not part of them.
UniProt Q5S007: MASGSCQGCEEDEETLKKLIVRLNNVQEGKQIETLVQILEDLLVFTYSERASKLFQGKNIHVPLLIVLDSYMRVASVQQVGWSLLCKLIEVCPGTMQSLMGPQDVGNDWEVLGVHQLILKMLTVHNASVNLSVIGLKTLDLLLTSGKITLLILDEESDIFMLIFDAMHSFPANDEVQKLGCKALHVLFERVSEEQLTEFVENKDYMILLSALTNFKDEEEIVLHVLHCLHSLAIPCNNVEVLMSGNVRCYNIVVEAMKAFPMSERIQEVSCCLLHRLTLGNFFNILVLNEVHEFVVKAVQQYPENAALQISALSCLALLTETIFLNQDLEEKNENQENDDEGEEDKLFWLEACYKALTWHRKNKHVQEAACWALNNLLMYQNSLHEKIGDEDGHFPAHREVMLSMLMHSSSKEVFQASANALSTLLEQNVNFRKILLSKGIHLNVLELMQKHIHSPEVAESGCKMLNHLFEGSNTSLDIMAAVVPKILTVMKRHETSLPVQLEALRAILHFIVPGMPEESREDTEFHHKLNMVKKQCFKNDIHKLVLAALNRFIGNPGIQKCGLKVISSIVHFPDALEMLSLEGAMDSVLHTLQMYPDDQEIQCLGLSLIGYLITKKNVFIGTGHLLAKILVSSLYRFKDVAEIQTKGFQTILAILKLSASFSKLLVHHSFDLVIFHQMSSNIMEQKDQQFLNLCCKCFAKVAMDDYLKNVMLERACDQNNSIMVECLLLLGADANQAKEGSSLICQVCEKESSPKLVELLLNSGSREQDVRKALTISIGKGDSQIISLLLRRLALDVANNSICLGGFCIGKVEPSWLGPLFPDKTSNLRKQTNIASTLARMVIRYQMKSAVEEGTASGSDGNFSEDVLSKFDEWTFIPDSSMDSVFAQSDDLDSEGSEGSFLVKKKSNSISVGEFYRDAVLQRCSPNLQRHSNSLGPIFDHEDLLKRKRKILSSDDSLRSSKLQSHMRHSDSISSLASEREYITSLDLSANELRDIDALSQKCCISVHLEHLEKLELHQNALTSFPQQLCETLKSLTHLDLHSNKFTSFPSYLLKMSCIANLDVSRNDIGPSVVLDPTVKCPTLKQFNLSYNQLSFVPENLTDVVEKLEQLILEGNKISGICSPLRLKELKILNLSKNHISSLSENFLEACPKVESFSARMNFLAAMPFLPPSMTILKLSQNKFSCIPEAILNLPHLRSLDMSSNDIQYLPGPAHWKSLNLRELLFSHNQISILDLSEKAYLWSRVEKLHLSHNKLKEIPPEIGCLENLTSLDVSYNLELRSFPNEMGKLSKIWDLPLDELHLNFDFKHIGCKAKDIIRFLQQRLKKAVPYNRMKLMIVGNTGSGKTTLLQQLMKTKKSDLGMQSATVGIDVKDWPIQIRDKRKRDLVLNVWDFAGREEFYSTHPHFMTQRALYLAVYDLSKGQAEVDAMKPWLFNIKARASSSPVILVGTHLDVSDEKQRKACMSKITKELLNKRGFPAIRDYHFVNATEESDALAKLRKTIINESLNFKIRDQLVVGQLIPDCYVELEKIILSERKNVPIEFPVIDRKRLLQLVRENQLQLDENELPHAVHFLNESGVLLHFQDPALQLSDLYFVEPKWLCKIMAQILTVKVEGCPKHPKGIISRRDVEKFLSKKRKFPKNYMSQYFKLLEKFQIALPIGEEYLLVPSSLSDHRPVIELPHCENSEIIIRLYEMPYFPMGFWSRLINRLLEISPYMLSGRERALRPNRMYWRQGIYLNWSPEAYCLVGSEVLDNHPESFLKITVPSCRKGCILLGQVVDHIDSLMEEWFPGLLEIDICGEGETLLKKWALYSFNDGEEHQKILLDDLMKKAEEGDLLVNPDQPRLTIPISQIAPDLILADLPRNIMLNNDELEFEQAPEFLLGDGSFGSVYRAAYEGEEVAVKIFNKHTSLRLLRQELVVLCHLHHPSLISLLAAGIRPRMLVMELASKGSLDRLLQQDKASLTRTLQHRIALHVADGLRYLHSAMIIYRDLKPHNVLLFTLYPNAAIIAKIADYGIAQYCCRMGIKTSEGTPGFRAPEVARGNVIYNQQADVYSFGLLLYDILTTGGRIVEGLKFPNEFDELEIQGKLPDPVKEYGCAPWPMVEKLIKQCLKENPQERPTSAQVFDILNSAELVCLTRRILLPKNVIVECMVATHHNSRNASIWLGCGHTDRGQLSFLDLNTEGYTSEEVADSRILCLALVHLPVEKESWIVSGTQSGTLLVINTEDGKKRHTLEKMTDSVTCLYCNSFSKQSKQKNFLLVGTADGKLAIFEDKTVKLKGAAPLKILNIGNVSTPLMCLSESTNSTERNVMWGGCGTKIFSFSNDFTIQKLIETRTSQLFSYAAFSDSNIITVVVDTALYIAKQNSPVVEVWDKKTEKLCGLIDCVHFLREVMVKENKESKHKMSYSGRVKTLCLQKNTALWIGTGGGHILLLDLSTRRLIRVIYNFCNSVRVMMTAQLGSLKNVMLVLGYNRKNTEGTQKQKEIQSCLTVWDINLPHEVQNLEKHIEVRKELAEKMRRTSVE

B1: Syntaxin-5 (protein, UniProt Q13190 1-355)
chain: MIPRKRYGSKNTDQGVYLGLSKTQVLSPATAGSSSSDIAPLPPPVTLVPPPPDTMSCRDRTQEFLSACKSLQTRQNGIQTNKPALRAVRQRSEFTLMAKRIGKDLSNTFAKLEKLTILAKRKSLFDDKAVEIEELTYIIKQDINSLNKQIAQLQDFVRAKGSQSGRHLQTHSNTIVVSLQSKLASMSNDFKSVLEVRTENLKQQRSRREQFSRAPVSALPLAPNHLGGGAVVLGAESHASKDVAIDMMDSRTSQQLQLIDEQDSYIQSRADTMQNIESTIVELGSIFQQLAHMVKEQEETIQRIDENVLGAQLDVEAAHSEILKYFQSVTSNRWLMVKIFLILIVFFIIFVVFLA
B2: Rab11 family-interacting protein 5 (protein, UniProt Q9BXF6 1-653)
chain: MALVRGAEPAAGPSRWLPTHVQVTVLRARGLRGKSSGAGSTSDAYTVIQVGREKYSTSVVEKTHGCPEWREECSFELPPGALDGLLRAQEADAGPAPWAASSAAACELVLTTMHRSLIGVDKFLGQATVALDEVFGAGRAQHTQWYKLHSKPGKKEKERGEIEVTIQFTRNNLSASMFDLSMKDKPRSPFSKIRDKMKGKKKYDLESASAILPSSAIEDPDLGSLGKMGKAKGFFLRNKLRKSSLTQSNTSLGSDSTLSSASGSLAYQGPGAELLTRSPSRSSWLSTEGGRDSAQSPKLFTHKRTYSDEANQMRVAPPRALLDLQGHLDAASRSSLCVNGSHIYNEEPQGPVRHRSSISGSLPSSGSLQAVSSRFSEEGPRSTDDTWPRGSRSNSSSEAVLGQEELSAQAKVLAPGASHPGEEEGARLPEGKPVQVATPIVASSEAVAEKEGARKEERKPRMGLFHHHHQGLSRSELGRRSSLGEKGGPILGASPHHSSSGEEKAKSSWFGLREAKDPTQKPSPHPVKPLSAAPVEGSPDRKQSRSSLSIALSSGLEKLKTVTSGSIQPVTQAPQAGQMVDTKRLKDSAVLDQSAKYYHLTHDELISLLLQRERELSQRDEHVQELESYIDRLLVRIMETSPTLLQIPPGPPK
B3: Carboxypeptidase D (enzyme, UniProt O75976 32-1380)
chain: AHIKKAEATTTTTSAGAEAAEGQFDRYYHEEELESALREAAAAGLPGLARLFSIGRSVEGRPLWVLRLTAGLGSLIPEGDAGPDAAGPDAAGPLLPGRPQVKLVGNMHGDETVSRQVLIYLARELAAGYRRGDPRLVRLLNTTDVYLLPSLNPDGFERAREGDCGFGDGGPSGASGRDNSRGRDLNRSFPDQFSTGEPPALDEVPEVRALIEWIRRNKFVLSGNLHGGSVVASYPFDDSPEHKATGIYSKTSDDEVFKYLAKAYASNHPIMKTGEPHCPGDEDETFKDGITNGAHWYDVEGGMQDYNYVWANCFEITLELSCCKYPPASQLRQEWENNRESLITLIEKVHIGVKGFVKDSITGSGLENATISVAGINHNITTGRFGDFYRLLVPGTYNLTVVLTGYMPLTVTNVVVKEGPATEVDFSLRPTVTSVIPDTTEAVSTASTVAIPNILSGTSSSYQPIQPKDFHHHHFPDMEIFLRRFANEYPNITRLYSLGKSVESRELYVMEISDNPGVHEPGEPEFKYIGNMHGNEVVGRELLLNLIEYLCKNFGTDPEVTDLVHNTRIHLMPSMNPDGYEKSQEGDSISVIGRNNSNNFDLNRNFPDQFVQITDPTQPETIAVMSWMKSYPFVLSANLHGGSLVVNYPFDDDEQGLATYSKSPDDAVFQQIALSYSKENSQMFQGRPCKNMYPNEYFPHGITNGASWYNVPGGMQDWNYLQTNCFEVTIELGCVKYPLEKELPNFWEQNRRSLIQFMKQVHQGVRGFVLDATDGRGILNATISVAEINHPVTTYKTGDYWRLLVPGTYKITASARGYNPVTKNVTVKSEGAIQVNFTLVRSSTDSNNESKKGKGASSSTNDASDPTTKEFETLIKDLSAENGLESLMLRSSSNLALALYRYHSYKDLSEFLRGLVMNYPHITNLTNLGQSTEYRHIWSLEISNKPNVSEPEEPKIRFVAGIHGNAPVGTELLLALAEFLCLNYKKNPAVTQLVDRTRIVIVPSLNPDGRERAQEKDCTSKIGQTNARGKDLDTDFTNNASQPETKAIIENLIQKQDFSLSVALDGGSMLVTYPYDKPVQTVENKETLKHLASLYANNHPSMHMGQPSCPNKSDENIPGGVMRGAEWHSHLGSMKDYSVTYGHCPEITVYTSCCYFPSAARLPSLWADNKRSLLSMLVEVHKGVHGFVKDKTGKPISKAVIVLNEGIKVQTKEGGYFHVLLAPGVHNIIAIADGYQQQHSQVFVHHDAASSVVIVFDTDNRIFGLPRELVVTVSGATMSALILTACIIWCICSIKSNRHKDGFHRLRQHHDEYEDEIRMMSTGSKKSLLSHEFQDETDTEEETLYSSKH
B4: Rho GTPase-activating protein 1 (protein, UniProt Q07960 1-439)
chain: MDPLSELQDDLTLDDTSEALNQLKLASIDEKNWPSDEMPDFPKSDDSKSSSPELVTHLKWDDPYYDIARHQIVEVAGDDKYGRKIIVFSACRMPPSHQLDHSKLLGYLKHTLDQYVESDYTLLYLHHGLTSDNKPSLSWLRDAYREFDRKYKKNIKALYIVHPTMFIKTLLILFKPLISFKFGQKIFYVNYLSELSEHVKLEQLGIPRQVLKYDDFLKSTQKSPATAPKPMPPRPPLPNQQFGVSLQHLQEKNPEQEPIPIVLRETVAYLQAHALTTEGIFRRSANTQVVREVQQKYNMGLPVDFDQYNELHLPAVILKTFLRELPEPLLTFDLYPHVVGFLNIDESQRVPATLQVLQTLPEENYQVLRFLTAFLVQISAHSDQNKMTNTNLAVVFGPNLLWAKDAAITLKAINPINTFTKFLLDHQGELFPSPDPSGL
B5: Septin-6 (protein, UniProt Q14141 1-434)
chain: MAATDIARQVGEGCRTVPLAGHVGFDSLPDQLVNKSVSQGFCFNILCVGETGLGKSTLMDTLFNTKFEGEPATHTQPGVQLQSNTYDLQESNVRLKLTIVSTVGFGDQINKEDSYKPIVEFIDAQFEAYLQEELKIRRVLHTYHDSRIHVCLYFIAPTGHSLKSLDLVTMKKLDSKVNIIPIIAKADAISKSELTKFKIKITSELVSNGVQIYQFPTDDESVAEINGTMNAHLPFAVIGSTEELKIGNKMMRARQYPWGTVQVENEAHCDFVKLREMLIRVNMEDLREQTHTRHYELYRRCKLEEMGFKDTDPDSKPFSLQETYEAKRNEFLGELQKKEEEMRQMFVQRVKEKEAELKEAEKELHEKFDRLKKLHQDEKKKLEDKKKSLDDEVNAFKQRKTAAELLQSQGSQAGGSQTLKRDKEKKNNPWLCTE
B6: C-Jun-amino-terminal kinase-interacting protein 4 (protein, UniProt O60271 1-1321)
chain: MELEDGVVYQEEPGGSGAVMSERVSGLAGSIYREFERLIGRYDEEVVKELMPLVVAVLENLDSVFAQDQEHQVELELLRDDNEQLITQYEREKALRKHAEEKFIEFEDSQEQEKKDLQTRVESLESQTRQLELKAKNYADQISRLEEREAELKKEYNALHQRHTEMIHNYMEHLERTKLHQLSGSDQLESTAHSRIRKERPISLGIFPLPAGDGLLTPDAQKGGETPGSEQWKFQELSQPRSHTSLKVSNSPEPQKAVEQEDELSDVSQGGSKATTPASTANSDVATIPTDTPLKEENEGFVKVTDAPNKSEISKHIEVQVAQETRNVSTGSAENEEKSEVQAIIESTPELDMDKDLSGYKGSSTPTKGIENKAFDRNTESLFEELSSAGSGLIGDVDEGADLLGMGREVENLILENTQLLETKNALNIVKNDLIAKVDELTCEKDVLQGELEAVKQAKLKLEEKNRELEEELRKARAEAEDARQKAKDDDDSDIPTAQRKRFTRVEMARVLMERNQYKERLMELQEAVRWTEMIRASRENPAMQEKKRSSIWQFFSRLFSSSSNTTKKPEPPVNLKYNAPTSHVTPSVKKRSSTLSQLPGDKSKAFDFLSEETEASLASRREQKREQYRQVKAHVQKEDGRVQAFGWSLPQKYKQVTNGQGENKMKNLPVPVYLRPLDEKDTSMKLWCAVGVNLSGGKTRDGGSVVGASVFYKDVAGLDTEGSKQRSASQSSLDKLDQELKEQQKELKNQEELSSLVWICTSTHSATKVLIIDAVQPGNILDSFTVCNSHVLCIASVPGARETDYPAGEDLSESGQVDKASLCGSMTSNSSAETDSLLGGITVVGCSAEGVTGAATSPSTNGASPVMDKPPEMEAENSEVDENVPTAEEATEATEGNAGSAEDTVDISQTGVYTEHVFTDPLGVQIPEDLSPVYQSSNDSDAYKDQISVLPNEQDLVREEAQKMSSLLPTMWLGAQNGCLYVHSSVAQWRKCLHSIKLKDSILSIVHVKGIVLVALADGTLAIFHRGVDGQWDLSNYHLLDLGRPHHSIRCMTVVHDKVWCGYRNKIYVVQPKAMKIEKSFDAHPRKESQVRQLAWVGDGVWVSIRLDSTLRLYHAHTYQHLQDVDIEPYVSKMLGTGKLGFSFVRITALMVSCNRLWVGTGNGVIISIPLTETNKTSGVPGNRPGSVIRVYGDENSDKVTPGTFIPYCSMAHAQLCFHGHRDAVKFFVAVPGQVISPQSSSSGTDLTGDKAGPSAQEPGSQTPLKSMLVISGGEGYIDFRMGDEGGESELLGEDLPLEPSVTKAERSHLIVWQVMYGNE
B7: Golgin subfamily A member 5 (protein, UniProt Q8TBA6 1-731)
chain: MSWFVDLAGKAEDLLNRVDQGAATALSRKDNASNIYSKNTDYTELHQQNTDLIYQTGPKSTYISSAADNIRNQKATILAGTANVKVGSRTPVEASHPVENASVPRPSSHFVRRKKSEPDDELLFDFLNSSQKEPTGRVEIRKEKGKTPVFQSSQTSSVSSVNPSVTTIKTIEENSFGSQTHEAASNSDSSHEGQEESSKENVSSNAACPDHTPTPNDDGKSHELSNLRLENQLLRNEVQSLNQEMASLLQRSKETQEELNKARARVEKWNADHSKSDRMTRGLRAQVDDLTEAVAAKDSQLAVLKVRLQEADQLLSTRTEALEALQSEKSRIMQDQSEGNSLQNQALQTFQERLHEADATLKREQESYKQMQSEFAARLNKVEMERQNLAEAITLAERKYSDEKKRVDELQQQVKLYKLNLESSKQELIDYKQKATRILQSKEKLINSLKEGSGFEGLDSSTASSMELEELRHEKEMQREEIQKLMGQIHQLRSELQDMEAQQVNEAESAREQLQDLHDQIAGQKASKQELETELERLKQEFHYIEEDLYRTKNTLQSRIKDRDEEIQKLRNQLTNKTLSNSSQSELENRLHQLTETLIQKQTMLESLSTEKNSLVFQLERLEQQMNSASGSSSNGSSINMSGIDNGEGTRLRNVPVLFNDTETNLAGMYGKVRKAASSIDQFSIRLGIFLRRYPIARVFVIIYMALLHLWVMIVLLTYTPEMHHDQPYGK
B8: Lamina-associated polypeptide 2, isoforms beta/gamma; Thymopoietin; Thymopentin (protein, UniProt P42167 1-454)
chain: MPEFLEDPSVLTKDKLKSELVANNVTLPAGEQRKDVYVQLYLQHLTARNRPPLPAGTNSKGPPDFSSDEEREPTPVLGSGAAAAGRSRAAVGRKATKKTDKPRQEDKDDLDVTELTNEDLLDQLVKYGVNPGPIVGTTRKLYEKKLLKLREQGTESRSSTPLPTISSSAENTRQNGSNDSDRYSDNEEDSKIELKLEKREPLKGRAKTPVTLKQRRVEHNQSYSQAGITETEWTSGSSKGGPLQALTRESTRGSRRTPRKRVETSEHFRIDGPVISESTPIAETIMASSNESLVVNRVTGNFKHASPILPITEFSDIPRRAPKKPLTRAEVGEKTEERRVERDILKEMFPYEASTPTGISASCRRPIKGAAGRPLELSDFRMEESFSSKYVPKYVPLADVKSEKTKKGRSIPVWIKILLFVVVAVFLFLVYQAMETNQVNPFSNFLHVDPRKSN

target: miniTurbo-LRRK2 (human) (UniProt Q5S007); assay: proximity labelling; mT-LRRK2 co-expressed with HA-RAB29 against empty pcDNA3.0 vector; biotin labelling, Strep-Tactin enrichment, LC-MSMS, LFQ with FDR-controlled t test

Row | binding | Binder
1 | binds | B1
2 | binds | B2
3 | binds | B3
4 | binds | B4
5 | binds | B5
6 | binds | B6
7 | binds | B7
8 | binds | B8

No constants are given. Whether binding was seen depends on the method and setting. Binding seen in cells or lysates may run through a third protein. Here binding means that the protein was enriched with, or labelled near, the bait; the list need not be complete.
